Measurements reported in publication PMC11130342.
These are yes or no findings as the source states them, for the method shown. For some of these results: Binding can be weak; no strength is given. Where a sequence is shown, tags or fusion partners need not be part of it. For some of these results: Binding seen in cells or lysates may run through a third protein.

Columns and labels:
[1] = molecular target: T1, OsSRF8 (N)-Flag, amino acids 26-320 (pCAMBIA1300-Flag) (rice (Oryza sativa)); assay: co-IP; N. benthamiana leaves; IP buffer 50 mM Tris-HCl pH 7.5, 100 mM NaCl, 0.75% Triton X-100; anti-Flag M2 agarose beads, 4 °C; blot with anti-GFP and anti-Flag
T1 sequence: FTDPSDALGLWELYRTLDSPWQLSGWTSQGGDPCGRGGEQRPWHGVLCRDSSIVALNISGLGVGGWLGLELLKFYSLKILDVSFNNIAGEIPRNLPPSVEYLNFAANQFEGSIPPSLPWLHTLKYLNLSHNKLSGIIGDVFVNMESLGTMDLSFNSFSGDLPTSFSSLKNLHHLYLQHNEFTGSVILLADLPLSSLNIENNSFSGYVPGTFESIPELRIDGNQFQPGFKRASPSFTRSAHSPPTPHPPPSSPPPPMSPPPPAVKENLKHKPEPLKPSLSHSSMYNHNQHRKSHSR

[2] = molecular target: T2, OsSRF8 (C), C-terminal (intracellular) domain of OsSRF8, amino acids 344-757, yeast two-hybrid fusion (rice (Oryza sativa)); assay: two-hybrid; yeast AH109, fragments in pGADT7 (AD) and pGBKT7 (BD), co-transformed, growth on selection medium
T2 sequence: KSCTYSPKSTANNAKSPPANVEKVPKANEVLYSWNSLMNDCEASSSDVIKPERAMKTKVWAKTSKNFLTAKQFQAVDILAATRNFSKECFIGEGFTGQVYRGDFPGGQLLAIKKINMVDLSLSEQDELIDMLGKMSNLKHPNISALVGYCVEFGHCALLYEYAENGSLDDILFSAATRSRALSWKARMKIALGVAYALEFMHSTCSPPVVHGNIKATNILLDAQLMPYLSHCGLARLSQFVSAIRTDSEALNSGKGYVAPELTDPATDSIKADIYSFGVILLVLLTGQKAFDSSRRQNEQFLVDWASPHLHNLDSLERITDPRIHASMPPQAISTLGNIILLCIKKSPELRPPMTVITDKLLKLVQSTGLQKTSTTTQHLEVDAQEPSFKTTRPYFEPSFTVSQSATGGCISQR

[3] = molecular target: T3, OsSRF8 (N), N-terminal (extracellular) domain of OsSRF8, amino acids 26-320, yeast two-hybrid fusion (rice (Oryza sativa)); assay: as above
T3 sequence: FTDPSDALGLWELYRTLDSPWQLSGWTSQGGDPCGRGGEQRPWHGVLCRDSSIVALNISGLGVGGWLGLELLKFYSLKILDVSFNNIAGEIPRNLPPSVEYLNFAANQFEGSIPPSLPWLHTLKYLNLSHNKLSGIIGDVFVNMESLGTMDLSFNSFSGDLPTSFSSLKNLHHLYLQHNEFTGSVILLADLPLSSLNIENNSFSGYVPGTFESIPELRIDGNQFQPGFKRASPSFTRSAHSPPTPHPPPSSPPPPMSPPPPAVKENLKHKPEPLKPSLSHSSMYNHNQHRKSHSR

[4] = molecular target: T4, full-length OsSRF8 fused to the N-terminal part of YFP (pSPYNE) (rice (Oryza sativa)); assay: split reporter; BiFC, YFP halves (pSPYNE/pSPYCE), co-infiltrated N. benthamiana leaves, 48 h, confocal microscopy
T4 sequence: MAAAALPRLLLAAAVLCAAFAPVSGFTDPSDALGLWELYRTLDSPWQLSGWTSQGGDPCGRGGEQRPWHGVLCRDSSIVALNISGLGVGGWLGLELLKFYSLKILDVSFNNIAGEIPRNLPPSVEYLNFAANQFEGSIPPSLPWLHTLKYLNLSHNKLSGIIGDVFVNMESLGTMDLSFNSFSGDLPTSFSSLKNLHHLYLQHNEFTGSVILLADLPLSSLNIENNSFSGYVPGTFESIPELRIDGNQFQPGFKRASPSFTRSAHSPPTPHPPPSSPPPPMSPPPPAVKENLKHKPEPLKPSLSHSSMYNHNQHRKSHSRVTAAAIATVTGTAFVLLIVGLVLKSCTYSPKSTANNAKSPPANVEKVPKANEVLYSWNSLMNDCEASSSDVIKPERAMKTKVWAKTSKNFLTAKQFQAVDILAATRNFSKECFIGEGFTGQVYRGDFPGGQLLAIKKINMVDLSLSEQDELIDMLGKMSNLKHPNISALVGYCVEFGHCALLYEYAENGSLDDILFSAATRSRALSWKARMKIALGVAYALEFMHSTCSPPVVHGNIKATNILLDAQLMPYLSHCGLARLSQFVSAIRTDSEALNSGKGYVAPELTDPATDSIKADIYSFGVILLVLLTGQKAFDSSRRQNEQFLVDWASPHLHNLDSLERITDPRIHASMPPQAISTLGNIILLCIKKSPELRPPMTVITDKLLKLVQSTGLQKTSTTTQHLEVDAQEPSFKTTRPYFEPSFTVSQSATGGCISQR

[5] = molecular target: T5, truncated OsSRF8(N), amino acids 26-320, fused to the N-terminal part of YFP (pSPYNE) (rice (Oryza sativa)); assay: as above
T5 sequence: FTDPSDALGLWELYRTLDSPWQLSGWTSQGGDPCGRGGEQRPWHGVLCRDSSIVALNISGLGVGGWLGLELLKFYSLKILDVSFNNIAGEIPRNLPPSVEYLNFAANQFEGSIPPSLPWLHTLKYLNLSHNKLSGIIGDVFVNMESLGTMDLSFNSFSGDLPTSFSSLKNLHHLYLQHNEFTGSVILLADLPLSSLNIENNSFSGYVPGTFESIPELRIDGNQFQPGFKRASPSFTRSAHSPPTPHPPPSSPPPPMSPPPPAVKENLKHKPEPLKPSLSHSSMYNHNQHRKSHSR

[6] = molecular target: OsDAF1(C)-Flag, amino acids 355-695 (pCAMBIA1300-Flag) (rice (Oryza sativa)); assay: co-IP; N. benthamiana leaves; IP buffer 50 mM Tris-HCl pH 7.5, 100 mM NaCl, 0.75% Triton X-100; anti-Flag M2 agarose beads, 4 °C; blot with anti-GFP and anti-Flag
[7] = molecular target: OsDAF1-Flag (pAN580-Flag) (rice (Oryza sativa)); assay: co-IP; rice protoplasts; IP buffer 50 mM Tris-HCl pH 7.5, 100 mM NaCl, 0.75% Triton X-100; anti-Flag M2 agarose beads, 4 °C; blot with anti-HA and anti-Flag

In the case of “OsINP1-GFP (pCAMBIA1305-GFP) (rice (Oryza sativa))”, the binding [1] is reported as “binds”.

“OsINP1 (INAPERTURATE POLLEN1), yeast two-hybrid fusion (rice (Oryza sativa))” was tested, and the binding [2] was “no binding” and the binding [3] was “binds”.

“OsINP1 fused to the C-terminal part of YFP (pSPYCE) (rice (Oryza sativa))” was tested, and the binding [4] was “binds” and the binding [5] was “binds”.

B1: OsSRF8 (C)-GFP, amino acids 344-757 (pCAMBIA1305-GFP) (domain or fragment)
chain: KSCTYSPKSTANNAKSPPANVEKVPKANEVLYSWNSLMNDCEASSSDVIKPERAMKTKVWAKTSKNFLTAKQFQAVDILAATRNFSKECFIGEGFTGQVYRGDFPGGQLLAIKKINMVDLSLSEQDELIDMLGKMSNLKHPNISALVGYCVEFGHCALLYEYAENGSLDDILFSAATRSRALSWKARMKIALGVAYALEFMHSTCSPPVVHGNIKATNILLDAQLMPYLSHCGLARLSQFVSAIRTDSEALNSGKGYVAPELTDPATDSIKADIYSFGVILLVLLTGQKAFDSSRRQNEQFLVDWASPHLHNLDSLERITDPRIHASMPPQAISTLGNIILLCIKKSPELRPPMTVITDKLLKLVQSTGLQKTSTTTQHLEVDAQEPSFKTTRPYFEPSFTVSQSATGGCISQR
B1 was tested, and the binding [6] was “binds”.

B2: OsSRF8-HA (pAN580-HA) (protein)
chain: MAAAALPRLLLAAAVLCAAFAPVSGFTDPSDALGLWELYRTLDSPWQLSGWTSQGGDPCGRGGEQRPWHGVLCRDSSIVALNISGLGVGGWLGLELLKFYSLKILDVSFNNIAGEIPRNLPPSVEYLNFAANQFEGSIPPSLPWLHTLKYLNLSHNKLSGIIGDVFVNMESLGTMDLSFNSFSGDLPTSFSSLKNLHHLYLQHNEFTGSVILLADLPLSSLNIENNSFSGYVPGTFESIPELRIDGNQFQPGFKRASPSFTRSAHSPPTPHPPPSSPPPPMSPPPPAVKENLKHKPEPLKPSLSHSSMYNHNQHRKSHSRVTAAAIATVTGTAFVLLIVGLVLKSCTYSPKSTANNAKSPPANVEKVPKANEVLYSWNSLMNDCEASSSDVIKPERAMKTKVWAKTSKNFLTAKQFQAVDILAATRNFSKECFIGEGFTGQVYRGDFPGGQLLAIKKINMVDLSLSEQDELIDMLGKMSNLKHPNISALVGYCVEFGHCALLYEYAENGSLDDILFSAATRSRALSWKARMKIALGVAYALEFMHSTCSPPVVHGNIKATNILLDAQLMPYLSHCGLARLSQFVSAIRTDSEALNSGKGYVAPELTDPATDSIKADIYSFGVILLVLLTGQKAFDSSRRQNEQFLVDWASPHLHNLDSLERITDPRIHASMPPQAISTLGNIILLCIKKSPELRPPMTVITDKLLKLVQSTGLQKTSTTTQHLEVDAQEPSFKTTRPYFEPSFTVSQSATGGCISQR
In the case of B2, the binding [7] is reported as “binds”.
